# Results from one PubChem assay

The results are deposited in PubChem (AID1347124; NCATS, 2019).

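A confirmation run on the RD childhood muscle tumor line, reading luminescent output as a stand-in for living cells after two days of compound exposure. Each compound ran as an 11-point dilution series; the listed activity columns span about 0.000009 to 367 µM. Potency is the fitted concentration giving half of the maximal effect on viability; a lower value means a more potent compound. Calls come from the whole curve; inconclusive marks weak, poorly fitted, top-dose-only or opposite-direction effects, scored 1 to 39.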

Values are in nM. All entries here are filed as inconclusive. Only part of the assay is shown, chiefly results filed as inconclusive. Potencies fitted to partial, single-point or poorly fitting curves are rough. Some entries filed as inconclusive have a full curve. Activity scores are not listed here.

{"smiles": "C[C@@]1(C(=O)Nc2ccc(F)nc2)CCCN1c1nc(Nc2cc(C3CC3)[nH]n2)c2cccn2n1", "Potency (nM)": "261.4", "remark": "cytotoxic, full curve, poor fit"}
{"smiles": "CC(S)C(=O)NCC(=O)O", "stereo": "stereo not drawn", "Potency (nM)": "464.9", "remark": "cytotoxic, full curve, poor fit"}
{"smiles": "CN(C)CC[C@H](CSc1ccccc1)Nc1ccc(S(=O)(=O)NC(=O)c2ccc(N3CCN(Cc4ccccc4-c4ccc(Cl)cc4)CC3)cc2)cc1[N+](=O)[O-]", "Potency (nM)": "3692", "remark": "cytotoxic, full curve, poor fit"}
{"smiles": "O=c1[nH]c2ccccc2n1CCCN1CCC(n2c(=O)[nH]c3cc(Cl)ccc32)CC1", "Potency (nM)": "9275", "remark": "cytotoxic, full curve"}
{"smiles": "CNC(=O)CN1CCC(Oc2cc3c(Nc4cccc(Cl)c4F)ncnc3cc2OC)CC1", "Potency (nM)": "4648", "remark": "cytotoxic, full curve"}
{"smiles": "CNC(=O)c1c(F)cccc1Nc1nc(Nc2cc3c(cc2OC)CCN3C(=O)CN(C)C)nc2[nH]ccc12", "Potency (nM)": "4.1", "remark": "cytotoxic, full curve, poor fit"}
{"smiles": "Cn1c2ccccc2c2c3c(c4c5ccccc5n(CCC#N)c4c21)CNC3=O", "Potency (nM)": "1168", "remark": "cytotoxic, full curve, poor fit"}
{"smiles": "CN(C)CCCN1c2ccccc2Sc2ccc(C(F)(F)F)cc21", "Potency (nM)": "32909", "remark": "cytotoxic, single point"}
{"smiles": "COc1cccc2c1C(=O)c1c(O)c3c(c(O)c1C2=O)C[C@@](O)(C(=O)CO)C[C@@H]3O[C@H]1C[C@H](N)[C@H](OC2CCCCO2)[C@H](C)O1", "stereo": "stereo partly drawn", "Potency (nM)": "5216", "remark": "cytotoxic, partial curve, poor fit"}